In this data set the test system is S. venezuelae cell extracts. Nature of the data set: c-di-GMP extraction and LC-MS/MS quantification in cell extracts. Also noted: species or system Streptomyces venezuelae.

Consider `Nc1nc2c(ncn2[C@@H]2O[C@@H]3COP(=O)(O)O[C@H]4[C@@H](O)[C@H](n5cnc6c(=O)[nH]c(N)nc65)O[C@@H]4COP(=O)(O)O[C@H]3[C@H]2O)c(=O)[nH]1` [c-di-GMP, bis-(3′−5′)-cyclic diguanosine monophosphate], for which the “c-di-GMP level in cells, maximum” value (during spore formation) was 68.0 ± 11.5 pmol/mg protein. For the same compound, the “c-di-GMP level in cells” value (transition to sporulation, after 14 h incubation) stood at 7.2 ± 3.9 pmol/mg protein and the “c-di-GMP level in cells” value (vegetative phase, after 8 h of growth in liquid MYM) worked out at 36.1 ± 5.2 pmol c-di-GMP/mg protein.

These data come from publication PMC9530166, “Allosteric regulation of glycogen breakdown by the second messenger cyclic di-GMP” (Nature Communications, 2022).
